{"source": "patent US9393249B2", "about": "“Antimicrobial composition” (INSTITUTE OF TECHNOLOGY SLIGO, priority 2008, dated 2016)", "system": "clinical isolates of Mastitis causing Staphylococcus aureus", "assay": "Inhibition assay (3 day repeats) on mastitis clinical isolates", "format": "cell-based", "details": "FIG. 11b", "experimental": "[…]\nAgar plates are inoculated by swabbing overnight culture onto the plate surface. […] Plates are incubated for 24, 48 or 72 hrs and zones of inhibition are measured using an Autodata automatic zone reader. The diameter of zones, including the diameter of the well (8.2 mm), is recorded. […]", "note": "At least one compound was matched to its structure with a doubt left."}
{"molecule": "CN(C)[C@@H]1C(O)=C(C(N)=O)C(=O)[C@@]2(O)C(O)=C3C(=O)c4c(O)cccc4[C@@](C)(O)[C@H]3C[C@@H]12", "note": "[Tetracycline]", "values": [{"measurement": "sensitivity of clinical isolate number 15", "result": "resistant"}]}
